This is an account of results in EP0060954A1, “Derivatives of fluorophenacyl amines and their therapeutic use” (LABORATOIRE L. LAFON Société anonyme dite:, priority 1981, dated 1982).

In data set [1] the test system is chiens. In words: Cardiovascular action, intravenous perfusion in dogs. Format: in vivo, chien. As for the experimental part: Deux chiens reçoivent le CRL 40727 par voie intraveineuse, en perfusion de 6 min, aux doses successives de 0,1 mg/kg, 1 mg/kg, 2,5 mg/kg, 5 mg/kg, 10 mg/kg et 20 mg/kg. On messure leur pression artérielle, leur fréquence cardiaque, leur débit fémoral, leur température rectale.

Data set [2] relates to chiens. The data set can be described thus: Cardiovascular action, intraduodenal route in dogs. The data set is classed as in vivo, chien. Particulars: dog. As for the experimental part: Trois chiens reçoivent le CRL 40727 par voie intraduodénale aux doses successives de 1 mg/kg, 2,5 mg/kg, 5 mg/kg et 10 mg/kg. On mesure les mêmes paramètres que ci-dessus. On observe ce qui suit.

Take `CC(C)NCC(=O)c1ccc(F)cc1` [CRL 40727, chlorhydratede N-(4-fluorophénacyl)-isopropylamine]: the “liquide biliaire (couleur)” value is “reste jaune” in the data set on chiens [1] (cumulated dose 38,5 mg/kg I.V.); “reste jaune” in the data set on chiens [1] (dog, i.v., doses 0,1 to 20 mg/kg); “restant jaune” in the data set on chiens [1] (one dog, supplementary dose of 40 mg/kg I.V.); “reste jaune” with chiens [2]. The température rectale result in the data set on chiens [1] (dog, i.v.) is “n'est pas modifiée”; in the data set on chiens [2], “n'est pas modifiée”. Also, the “dose from which la peau rosit très légèrement” value in the data set with chiens [2] was 2,5 mg/kg.
